Assay: Solubility of rapamycin in solvents
Assay type: physicochemical
Details: benzyl alcohol solution
Description: mTOR inhibitors are a potent class of pharmaceutically active agents that can be useful in treating a variety of conditions. There is a need that exists in the marketplace for topical formulation for delivering mTOR inhibitors. Formulations for mTOR inhibitors can be challenging because of their structures and solubility challenges that exist for many of these compounds. […] Benzyl alcohol has been identified as a solvent that can effectively solubilize rapamycin. In particular, benzyl alcohol can support 20 wt % solutions and higher of rapamycin. […] For example, formulations utilizing Span 80 and/or Tween 20 as surfactants were only able to achieve benzyl alcohol loading of 20 wt % or less.

Structure (SMILES): CO[C@H]1C[C@@H]2CC[C@@H](C)[C@@](O)(O2)C(=O)C(=O)N2CCCC[C@H]2C(=O)O[C@H]([C@H](C)C[C@@H]2CC[C@@H](O)[C@H](OC)C2)CC(=O)[C@H](C)/C=C(\C)[C@@H](O)[C@@H](OC)C(=O)[C@H](C)C[C@H](C)/C=C/C=C/C=C/1C [rapamycin]
- solubility of rapamycin in benzyl alcohol: ≥ 20 wt %
